In doi:10.1101/2023.05.11.540316:
Results are given in words; binding and its absence hold for the method and conditions named. Binding seen in cells or lysates may run through a third protein. A yes stands for co-enrichment or nearness to the bait. Other partners may have been found. Sequences can lack the tags named with a protein.

T1: GFP-DDHD2 (UniProt D3ZJ91)
T1 sequence: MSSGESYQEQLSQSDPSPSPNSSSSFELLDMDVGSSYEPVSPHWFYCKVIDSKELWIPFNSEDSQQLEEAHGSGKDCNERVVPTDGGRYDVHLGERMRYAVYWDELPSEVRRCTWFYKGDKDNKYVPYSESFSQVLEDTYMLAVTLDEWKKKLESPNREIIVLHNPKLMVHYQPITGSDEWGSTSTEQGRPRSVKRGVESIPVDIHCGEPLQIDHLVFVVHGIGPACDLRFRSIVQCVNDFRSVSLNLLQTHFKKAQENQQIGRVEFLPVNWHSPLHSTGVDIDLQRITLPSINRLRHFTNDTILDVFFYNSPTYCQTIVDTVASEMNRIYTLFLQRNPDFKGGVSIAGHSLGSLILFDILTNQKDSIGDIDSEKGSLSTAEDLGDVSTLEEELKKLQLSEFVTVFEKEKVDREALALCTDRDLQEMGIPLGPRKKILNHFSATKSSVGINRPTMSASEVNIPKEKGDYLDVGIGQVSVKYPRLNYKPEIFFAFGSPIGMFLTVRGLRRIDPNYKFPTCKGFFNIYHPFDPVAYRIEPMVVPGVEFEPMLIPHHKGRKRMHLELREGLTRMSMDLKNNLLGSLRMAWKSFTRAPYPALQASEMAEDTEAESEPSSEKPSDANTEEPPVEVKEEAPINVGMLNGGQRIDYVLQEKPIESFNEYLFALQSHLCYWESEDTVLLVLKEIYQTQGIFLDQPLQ

B1: Rab3c (protein, UniProt P62824 1-227)
chain: MRHEAPMQMASAQDARFGQKDSSDQNFDYMFKLLIIGNSSVGKTSFLFRYADDSFTSAFVSTVGIDFKVKTVFKNEKRIKLQIWDTAGQERYRTITTAYYRGAMGFILMYDITNEESFNAVQDWSTQIKTYSWDNAQVILAGNKCDMEDERVVSTERGQRLGEQLGFEFFETSAKDNINVKQTFERLVDIICDKMSESLETDPAITAAKQSTRLKETPPPPQPNCGC
B2: Rab10 (protein, UniProt P35281 1-200)
chain: MAKKTYDLLFKLLLIGDSGVGKTCVLFRFSDDAFNTTFISTIEIDFKIKTVELQGKKIKLQIWDTAGQERFHTITTSYYRGAMGIMLVYDITNGKSFENISKWLRNIDQHANEDVERMLLRNKCDMDHKRVVPKGKGEQIAREHRIRFFETSAKANINIEKAFLTLPEDILRKTPVKEPNSENVDISSGGGVTGWKSKCC
B3: Rab5c (protein, UniProt B0BNK1 1-216)
chain: MAGRGGAARPNGPAAGNKICQFKLVLLGESAVGKSSLVLRFVKGQFHEYQESTIGAAFLTQTVCLDDTTVKFEIWDTAGQERYHSLAPMYYRGAQAAIVVYDITNTDTFARAKNWVKELQRQASPNIVIALAGNKADLASKRAVEFQEAQAYADDNSLLFMETSAKTAMNVNEIFMAIAKKLPKNEPQNAAGAPGRNRGVDLQESNPASRSQCCSN
B4: Nefm (protein, UniProt P12839 1-846)
chain: MSYTLDSLGNPSAYRRVPTETRSSFSRVSGSPSSGFRSQSWSRGSPSTVSSSYKRSALAPRLAYSSAMLSSAESSLDFSQSSSLLNGGSGGDYKLSRSNEKEQLQGLNDRFAGYIEKVHYLEQQNKEIEAEIHALRQKQASHAQLGDAYDQEIRELRATLEMVNHEKAQVQLDSDHLEEDIHRLKERFEEEARLRDDTEAAIRAVRKDIEESSMVKVELDKKVQSLQDEVAFLRSNHEEEVADLLAQIQASHITVERKDYLKTDISTALKEIRSQLECHSDQNMHQAEEWFKCRYAKLTEAAEQNKEAIRSAKEEIAEYRRQLQSKSIELESVRGTKESLERQLSDIEERHNHDLSSYQDTIQQLENELRGTKWEMARHLREYQDLLNVKMALDIEIAAYRKLLEGEETRFSTFSGSITGPLYTHRQPSVTISSKIQKTKVEAPKLKVQHKFVEEIIEETKVEDEKSEMEDALTVIAEELAASAKEEKEEAEEKEEEPEVEKSPVKSPEAKEEEEGEKEEEEEGQEEEEEEDEGVKSDQAEEGGSEKEGSSEKDEGEQEEEGETEAEGEGEEAEAKEEKKTEGKVEEMAIKEEIKVEKPEKAKSPVPKSPVEEVKPKPEAKAGKDEQKEEEKVEEKKEVAKESPKEEKVEKKEEKPKDVPDKKKAESPVKEKAVEEMITITKSVKVSLEKDTKEEKPQQQEKVKEKAEEEGGSEEEVGDKSPQESKKEDIAINGEVEGKEEEEQETQEKGSGQEEEKGVVTNGLDVSPAEEKKGEDRSDDKVVVTKKVEKITSEGGDGATKYITKSVTVTQKVEEHEETFEEKLVSTKKVEKVTSHAIVKEVTQGD
B5: Sec22b (protein, UniProt Q4KM74 1-215)
chain: MVLLTMIARVADGLPLAASMQEDEQSGRDLQQYQSQAKQLFRKLNEQSPTRCTLEAGAMTFHYIIEQGVCYLVLCEAAFPKKLAFAYLEDLHSEFDEQHGKKVPTVSRPYSFIEFDTFIQKTKKLYIDSRARRNLGSINTELQDVQRIMVANIEEVLQRGEALSALDSKANNLSSLSKKYRQDAKYLNMRSTYAKLAAVAVFFIMLIVYVRFWWL

Molecular target: T1, GFP-DDHD2
Assay: affinity purification with mass spectrometry

Binder	binding
B1	binds
B2	binds
B3	binds
B4	binds
B5	binds
